Assay results reported in US20110045982A1, “HERBICIDAL COMPOSITION” (NOF CORPORATION, priority 2009, published 2011).

Experiment: Evaluation of odor by direct application (sensory)
Conditions: applied ragweed sealed in plastic bag, sensory evaluation after one day

| Compound | odor | odor (listed as Comparative Example 1) | odor (listed as Comparative Example 2) | odor (listed as Comparative Example 4) | odor (listed as Comparative Example 3) |
| --- | --- | --- | --- | --- | --- |
| CCCCCC(=O)O [compound 1, caproic acid] | stink | stank | – | – | – |
| CCCCCCCCC(=O)O [compound 2, pelargric acid] | stink | – | stank | – | – |
| CCCCCCCCC(=O)OCCO [compound 4, ethylene glycol monopelargric acid ester] | – | – | – | only slightly smelled | – |
| C=CCCCCCCCCC(=O)O [compound 3, undecylenoic acid] | stink | – | – | – | stank |
